Results are given in words; binding and its absence hold for the method and conditions named. Binding seen in cells or lysates may run through a third protein. Some binding calls cover weakened binding; strength is not graded here.
Biological target: hematopoietic-lineage substrate-1-associated protein X-1 (HAX1) (rat (endogenous in rat liver tissue)) (UniProt Q7TSE9)
Experiment: co-IP; rat liver tissue lysate (500 ug protein) incubated with 10 ug anti-HAX1 antibody overnight at 4 C, protein A/G magnetic beads 1 h at room temperature, western blotting; livers of the sham, CS, HOPE and HOPE + AG490 groups of the DCD rat model

Sequences of proteins named here, by UniProt entry; tags and fusion partners are left off.
UniProt Q7TSE9: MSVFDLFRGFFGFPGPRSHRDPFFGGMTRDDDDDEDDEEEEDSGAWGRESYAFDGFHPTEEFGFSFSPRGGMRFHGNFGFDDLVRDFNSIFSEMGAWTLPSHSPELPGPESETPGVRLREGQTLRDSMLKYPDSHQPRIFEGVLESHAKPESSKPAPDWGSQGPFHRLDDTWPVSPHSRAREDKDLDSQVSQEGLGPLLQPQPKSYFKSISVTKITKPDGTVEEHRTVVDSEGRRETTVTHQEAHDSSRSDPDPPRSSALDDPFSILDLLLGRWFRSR

Sarco/endoplasmic reticulum calcium ATPase 2b (SERCA2b) (from UniProt P11507-1 1-1043)
binding: binds
